Values joined by “and” are separate entries in the source; they are usually repeats but may differ in a detail not shown here. Identical values can stand only once. The list shows a part of the results. Each value is one well over the wells without odorant, computed here; the data are noisy.
Experiments:
Assay in all cases: odorant receptor activation (CRE luciferase / Renilla) (fold of no-odor wells); higher = more activation
Conditions in all cases: 100 µM
[1] = system: OR5T2 clone 1313
[2] = system: OR5T2 clone 1428
[3] = system: OR5T3 clone 1343
[4] = system: OR5V1 clone 1070
[5] = system: OR6A2 clone 1489
[6] = system: OR6B1 R143C clone 1181
[7] = system: OR6B2 R122C clone 1444
[8] = system: OR6B3 R261W clone 1445
[9] = system: OR6C1 V74I/C130Y/L161F/H165D/V246I/R291K clone 1442
[10] = system: OR6C2 clone 1413
[11] = system: OR6C3 clone 1424
[12] = system: OR6C4 I37V clone 1412
[13] = system: OR6C6 clone 1426
[14] = system: OR6C65 clone 1459
[15] = system: OR6C68 A45T clone 1451
[16] = system: OR6C70 clone 1427
[17] = system: OR6C74 clone 1441
[18] = system: OR6C75 clone 1519
[19] = system: OR6C76 clone 1414
[20] = system: OR6F1 clone 1039

Row | Compound | odorant receptor activation [1] | odorant receptor activation [2] | odorant receptor activation [3] | odorant receptor activation [4] | odorant receptor activation [5] | odorant receptor activation [6] | odorant receptor activation [7] | odorant receptor activation [8] | odorant receptor activation [9] | odorant receptor activation [10] | odorant receptor activation [11] | odorant receptor activation [12] | odorant receptor activation [13] | odorant receptor activation [14] | odorant receptor activation [15] | odorant receptor activation [16] | odorant receptor activation [17] | odorant receptor activation [18] | odorant receptor activation [19] | odorant receptor activation [20]
1 | C=CC(C)(O)CCC=C(C)C (stereo not given) [linalool] | 1.1 | 0.978 | 0.794 | 1.25 | 1.1 | 0.964 | 0.739 | 0.937 | 1.41 | 0.812 | 0.761 | 0.921 | 1.14 | 1.17 | 0.948 | 0.957 | 1.02 | 0.916 | 0.699 | 1.09
2 | CCCCCCCC=CC=O [2-decenal] | 1.16 | 0.873 | 1.22 | 3.37 | 1.64 | 0.885 | 0.866 | 0.895 | 1.16 | 1.35 | 0.566 | 0.704 | 1.6 | 1.65 | 0.88 | 1.19 | 1.11 | 1.97 | 0.634 | 14
3 | CC(=O)OCC=C(C)CCC=C(C)C [geranyl acetate] | 1.16 and 1.1 | 1.06 | 1.55 and 1.37 | 0.902 | 1.26 and 1.59 | 0.922 | 1.04 | 1.37 | 1.27 | 1.11 | 1.27 | 1.1 | 1.45 | 0.927 and 1.48 | 1.61 | 0.906 | 0.96 | 1.06 and 0.82 | 1.07 | 2.11
4 | COc1cc(C=O)ccc1O [vanillin] | 1.05 | 0.984 | 1.19 | 0.915 | 1.01 | 1.18 | 1.14 | 0.958 | 1.02 | 1.06 | 0.789 | 0.852 | 0.89 | 0.975 | 0.902 | 0.988 | 0.936 | 0.95 | 1.08 | 1.19
5 | CC1CCC(C(C)C)C(O)C1 (single isomer, unassigned; (+)) [(+)-menthol] | 0.879 | 1.07 | 0.866 | 2.78 | 1.34 | 1.38 | 1 | 0.729 | 1.22 | 1.01 | 0.813 | 0.973 | 0.84 | 1.32 | 0.695 | 0.882 | 1.51 | 1.08 | 0.669 | 3.05
6 | CC(=O)OC(C)(C)C1CC=C(C)CC1 (stereo not given) [terpinyl acetate] | 0.884 | 0.892 | 1.06 | 1.47 | 1.13 | 1.54 | 0.914 | 0.95 | 0.961 | 1.03 | 1.01 | 0.923 | 0.902 | 0.973 | 0.938 | 1.09 | 1.01 | 1.02 | 0.896 | 1.61
7 | CC=Cc1ccc(O)c(OC)c1 [isoeugenol] | 1.15 and 0.943 | 1.28 | 2.06 and 1.34 | 1.27 | 1.13 and 2.41 | 0.762 | 1.19 | 1.38 | 1.71 | 1.67 | 1.94 | 1.48 | 1.71 | 1.02 and 2.44 | 3.79 | 1.38 | 1.33 | 2.43 and 1.24 | 1.56 | 1.91

— the odorant receptor screen of Mainland et al. (2015)
